{"source": "patent US20090093069A1", "about": "“Topiramate Immunoassays” (ARK Diagnostics, Inc., priority 2007, published 2009)", "origin": "cited, not measured here", "note": "Some results were stated once for a whole list of compounds, not compound by compound.", "data": [{"test_system": "anti-topiramate antibody reagent", "conditions": "turbidimetric immunoassay, as stated in the product insert; cited from earlier work", "values": [{"smiles": "Cc1ccsc1C(=CCCN1CCC[C@@H](C(=O)O)C1)c1sccc1C", "note": "[tiagabine]", "interference": "greater than 10%"}, {"smiles": "CC(C)Cc1ccc(C(C)C(=O)O)cc1", "note": "(stereo not drawn) [Ibuprofen]", "interference": "greater than 10%"}, {"smiles": "O=C1NC(=O)C(c2ccccc2)(c2ccccc2)N1", "note": "[Phenytoin]", "interference": "greater than 10%"}]}]}
